Source: PubChem BioAssay AID624297 (National Center for Advancing Translational Sciences (NCATS), 2012)
Several values for one entry are separate records, joined by “and”; a condition that tells them apart may be missing. Equal values may be shown once. Out of some 340,000 compounds screened, about 6,200 (1.8%) were called active. The inconclusive results got no clear call from the source; some entries with a clear call stand among them for comparison. The call rests on the fitted dose curve; in most records, active means well fitted activation curve with a large enough effect; inconclusive means small, poorly fitted or top-dose-only effect; inactive means no such curve, though single readings can be large or run the other way. Where the call is inconclusive, the potency comes from a doubtful curve fit.

assay: A quantitative high throughput screen for small molecules that induce DNA re-replication in SW480 colon adenocarcinoma cells.; further: nearly all actives have a fitted effect of over 55% in size; conditions: Hoechst DNA content imaging, 48 h; series mostly up to 46.1 µM
In short: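 Treated cells incubate 48 hr (37 C, 5% CO2), are stained 40 min with Hoechst, and nuclear fluorescence is enumerated; a rise in nuclei with high DNA signal marks re-replication.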
Potency means the concentration at half of the fitted maximal effect.

Compound | Potency
CCOC(=O)/C(=N\Nc1ccc(Cl)cc1)c1csc(Nc2ccccc2)n1 | inconclusive: 29.1 µM [activator, single point]
CCCCN(CCCC)CCC(O)c1cc2c(Cl)cc(Cl)cc2c2cc(C(F)(F)F)ccc12 (stereo unspecified) | inconclusive: 0.631 µM [activator, single point]
C#C[C@]1(O)CC[C@H]2[C@@H]3CCc4cc(O)ccc4[C@H]3CC[C@@]21C | inconclusive: 29.9 µM [activator, single point] and inconclusive: 20.6 µM [activator, single point]
O=c1cc(O)n(Cc2ccc(F)cc2)c(=O)[nH]1 | inactive
COc1ccc(OC)c(NC(=O)NC2CCCc3ccccc32)c1 (stereo unspecified) | inconclusive: 23.1 µM [activator, partial curve, poor fit]
CCOCCCN(C(=O)c1snc(C(N)=O)c1N)C(C(=O)NC1CCCC1)c1ccc(OC)cc1 (stereo unspecified) | inactive
CCOC(=O)N1CCN(C(=O)/C=C/c2ccc([N+](=O)[O-])cc2)CC1 | inconclusive: 0.731 µM [activator, partial curve, poor fit]
COc1ccc(-c2nc(=S)c3ccc4ccccc4c3[nH]2)cc1 | inactive
CC(NC(=O)C1CCC(C(C)(C)C)CC1)C(c1ccccc1)N1CCOCC1 (stereo unspecified) | inconclusive: 32.6 µM [activator, partial curve, poor fit]
FC(F)(F)c1cccc(Sc2nc(-c3ccccc3)nnc2C(F)(F)F)c1 | inconclusive: 16.4 µM [activator, single point]
Cc1onc(C(=O)Nc2c(C)n(C)n(-c3ccccc3)c2=O)c1[N+](=O)[O-] | inconclusive: 29.1 µM [activator, single point]
COc1cccc(NC(=O)CN(C)C(=O)c2cccc(S(=O)(=O)N3CCN(c4ccccc4)CC3)c2)c1 | inconclusive: 29.1 µM [activator, single point]
O=C(CSc1ccc(Cl)cc1)N1CCC(c2nc3ccccc3s2)CC1 | inactive
C=CCSc1cc(C)nc2c(-c3ccc(Cl)cc3)c(C)nn12 | inconclusive: 18.4 µM [activator, single point]
COc1cc2c(c(NC(C)=O)c1)N(C(C)=O)CCC2 | inactive
COc1ccc(C2=C(c3ccc(OC)c(OC)c3)CN3CCCCC3C2)cc1 (stereo unspecified) | inconclusive: 0.146 µM [activator, full curve, poor fit]
Clc1cccc(N/N=C(\Cc2nc3ccccc3[nH]2)c2ccccc2)c1 | inconclusive: 32.6 µM [activator, partial curve, poor fit]
COc1ccc(C(=O)Nc2cccc(S(=O)(=O)NC3=NCCCCC3)c2)cc1 | inconclusive: 4.11 µM [activator, single point]
CSCC[C@H](NC(=O)c1cc2c([nH]c3ccccc32)c(-c2ccccc2)n1)C(=O)O | active: 23.1 µM
S=C(N/N=C/c1ccccc1Cl)Nc1cccc(Cl)c1Cl | inconclusive: 11.6 µM [activator, single point]
CC1=C(C)CS(=O)N(S(=O)(=O)c2ccccc2)C1 (stereo unspecified) | inconclusive: 8.2 µM [activator, partial curve]

Of the compounds above, these contain a Cl atom.
Compound | Potency
CCOC(=O)/C(=N\Nc1ccc(Cl)cc1)c1csc(Nc2ccccc2)n1 | inconclusive: 29.1 µM [activator, single point]
CCCCN(CCCC)CCC(O)c1cc2c(Cl)cc(Cl)cc2c2cc(C(F)(F)F)ccc12 (stereo unspecified) | inconclusive: 0.631 µM [activator, single point]
O=C(CSc1ccc(Cl)cc1)N1CCC(c2nc3ccccc3s2)CC1 | inactive
C=CCSc1cc(C)nc2c(-c3ccc(Cl)cc3)c(C)nn12 | inconclusive: 18.4 µM [activator, single point]
Clc1cccc(N/N=C(\Cc2nc3ccccc3[nH]2)c2ccccc2)c1 | inconclusive: 32.6 µM [activator, partial curve, poor fit]
S=C(N/N=C/c1ccccc1Cl)Nc1cccc(Cl)c1Cl | inconclusive: 11.6 µM [activator, single point]

Following part:

Compound | Potency
Cc1cccc(-c2nnc(SCC(=O)Nc3ncccn3)n2C)c1 | inconclusive: 1.46 µM [activator, single point]
COc1cc2c(cc1OC)CN(c1nc(CN3CCCCC3)nc3sc4c(c13)CCCC4)CC2 | inconclusive: 20.6 µM [activator, single point]
COc1cccc(NS(=O)(=O)c2ccc3c(c2)CCCN3C(C)=O)c1 | inconclusive: 29.1 µM [activator, single point]
Cc1csc(Sc2ccc([N+](=O)[O-])cc2C(=O)OCC(=O)NC2CCCC(C)C2C)n1 (stereo unspecified) | inconclusive: 25.1 µM [activator, single point]
CSc1nc(Sc2ccccc2Cl)c2ccccc2n1 | inconclusive: 29.1 µM [activator, single point]
CCc1nc(OCC(=O)c2ccccc2)c(C#N)c2c1COC(C)(C)C2 | inconclusive: 25.9 µM [activator, single point]
Cc1ccc(C)c(N2C(=O)C3C4C=CC(CC4)C3C2=O)c1 (stereo unspecified) | inactive
CCCC(c1nnnn1CC1CCCO1)N1CCN(c2cc(Cl)ccc2C)CC1 (stereo unspecified) | inactive
O=C1CC(N(Cc2cccs2)C(=O)Nc2ccccc2)C(=O)N1c1ccc(Cl)cc1 (stereo unspecified) | inconclusive: 0.0052 µM [activator, full curve, poor fit]
CCOC(=O)CNC(=O)c1sc2ncnc(N3CCc4ccccc4C3)c2c1C | inconclusive: 20.6 µM [activator, single point]
CCOc1cc(Br)cc(/C=N/NC(=O)c2cccnc2)c1O | inconclusive: 0.731 µM [activator, full curve, poor fit]
Cc1cccc(C)c1NC(=O)CSc1nc(-c2ccco2)cc(C(F)(F)F)n1 | active: 20.6 µM
O=C1NC2=C(C(=O)CCC2)C(c2ccc([N+](=O)[O-])cc2)N1 (stereo unspecified) | inactive
CN(C)c1ccc(C2C=C(c3ccc(Cl)cc3OC(F)F)Nc3ncnn32)cc1 (stereo unspecified) | active: 23.1 µM
CCN(CC)c1ccc(CNc2ccc3c(c2)ncn3CC)cc1 | inconclusive: 25.9 µM [activator, partial curve, poor fit]
COc1ccc(S(=O)(=O)N2CCCCC2)cc1NC(=O)Cc1sc(C)nc1-c1ccc(F)cc1 | inactive
S=C(NCC1CCCO1)N1CCN(c2nc(-c3ccccc3)cs2)CC1 (stereo unspecified) | inconclusive: 0.116 µM [activator, full curve, poor fit]
O=C(NN1C(=O)NC2(CCCCC2)C1=O)c1ccc(Cl)c(Cl)c1 | inconclusive: 11.6 µM [activator, partial curve, poor fit]
Cc1ccccc1OCCCCc1c(C)n[nH]c1C | inconclusive: 29.1 µM [activator, single point]
Oc1c(Cl)cc(Oc2cc(Cl)c(O)c(CN3CCOCC3)c2)cc1CN1CCOCC1 | inconclusive: 23.1 µM [activator, single point]
